According to the supplement of paper PMC9454738:
The list shows a part of the results. Single values are uncertain here, since repeats match poorly.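 Assays used MDA-MB-231 triple-negative breast cancer cells and their brain-metastatic line MDA-MB-231BRM, stably carrying empty vector, full-length GLI1 or truncated tGLI1. After 48 h, viability was read with CellTiter-Blue and normalized to 1% DMSO vehicle. tGLI1 selectivity meant viability fell 20% more in tGLI1 cells than in vector and GLI1 cells.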

Legend:
Experiment in all cases: cell viability relative to vehicle (DMSO) control (fraction); higher = more viable cells (less growth inhibition)
Conditions in all cases: treatment time 48 h
[1] = tested on: MDA-MB-231 GLI1
[2] = tested on: MDA-MB-231 Vector
[3] = tested on: MDA-MB-231 tGLI1
[4] = tested on: MDA-MB-231BRM GLI1
[5] = tested on: MDA-MB-231BRM Vector
[6] = tested on: MDA-MB-231BRM tGLI1

| Compound | cell viability ([1]; 0.05 µM) | cell viability ([1]; 0.5 µM) | cell viability ([1]; 5 µM) | cell viability ([2]; 0.05 µM) | cell viability ([2]; 0.5 µM) | cell viability ([2]; 5 µM) | cell viability ([3]; 0.05 µM) | cell viability ([3]; 0.5 µM) | cell viability ([3]; 5 µM) | cell viability ([4]; 0.05 µM) | cell viability ([4]; 0.5 µM) | cell viability ([4]; 5 µM) | cell viability ([5]; 0.05 µM) | cell viability ([5]; 0.5 µM) | cell viability ([5]; 5 µM) | cell viability ([6]; 0.05 µM) | cell viability ([6]; 0.5 µM) | cell viability ([6]; 5 µM) |
| --- | --- | --- | --- | --- | --- | --- | --- | --- | --- | --- | --- | --- | --- | --- | --- | --- | --- | --- |
| CCOc1cc(N2CCC(O)CC2)ccc1Nc1ncc2c(n1)N(C)c1ccccc1C(=O)N2C | 2.16 | 3.08 | 0.917 | 1.25 | 1.31 | 0.6 | 1.35 | 1.44 | 0.72 | 0.884 | 0.697 | 0.65 | 0.886 | 0.735 | 0.704 | 1.16 | 1.02 | 1 |
| N#Cc1c(Oc2ccc(F)c(NC(=O)Cc3cccc(C(F)(F)F)c3)c2)ccc2nc(NC(=O)C3CC3)sc12 | 1.02 | 0.777 | 0.42 | 0.828 | 0.6 | 0.486 | 1.09 | 0.683 | 0.438 | 1.11 | 1.03 | 0.921 | 1.19 | 1.14 | 0.895 | 1.03 | 1.05 | 0.897 |
| COc1ccc(-c2ccc3c(N4CCOC[C@@H]4C)nc(N4CCOC[C@@H]4C)nc3n2)cc1CO | 0.769 | 0.342 | 0.339 | 1.22 | 0.42 | 0.379 | 0.827 | 0.448 | 0.362 | 0.983 | 0.916 | 0.607 | 1.04 | 0.796 | 0.639 | 0.513 | 0.811 | 0.565 |
| CC(=O)O[C@H]1C(=O)[C@@]2(C)[C@H]([C@H](OC(=O)c3ccccc3)[C@]3(O)C[C@H](OC(=O)[C@H](O)[C@@H](NC(=O)c4ccccc4)c4ccccc4)C(C)=C1C3(C)C)[C@]1(OC(C)=O)CO[C@@H]1C[C@@H]2O [Paclitaxel (Taxol)] | -0.0119 | -0.0683 | -0.062 | -0.273 | -0.337 | -0.286 | -0.0628 | -0.154 | -0.132 | 0.913 | 0.809 | 0.985 | 0.909 | 0.827 | 0.852 | 0.932 | 0.821 | 0.807 |
| COC(=O)Nc1ccc(-c2nc(N3CCOCC3)c3cnn(C4CCN(C(=O)OC)CC4)c3n2)cc1 | 1.1 | 0.495 | 0.285 | 1.58 | 0.521 | 0.293 | 0.478 | 0.487 | 0.254 | 1.07 | 0.836 | 0.345 | 0.54 | 0.779 | 0.585 | 0.915 | 0.743 | 0.598 |
| CCC[C@H](NC(=O)/C(C#N)=C/c1cccc(Br)n1)c1ccccc1 [Degrasyn (WP1130)] | 1.16 | 1.03 | -0.0548 | 0.971 | 1.32 | -0.0316 | 1.23 | 0.9 | -0.0475 | 0.997 | 1.09 | 1.06 | 1.03 | 1.05 | 0.907 | 0.989 | 1.07 | 1.1 |
| COc1cc2nccc(Oc3ccc(NC(=O)C4(C(=O)Nc5ccc(F)cc5)CC4)cc3)c2cc1OC | 1.49 | 1.78 | 0.592 | 1.55 | 1.36 | 0.448 | 1.23 | 1.44 | 0.44 | 1.03 | 0.953 | 0.938 | 0.953 | 0.897 | 0.94 | 0.926 | 0.98 | 0.935 |
| N#CC1(c2ccc(NC(=O)c3cccnc3NCc3ccncc3)cc2)CCCC1 [Apatinib] | 1.34 | 1.26 | 1.51 | 0.805 | 0.649 | 1.41 | 0.557 | 1.17 | 1.18 | 0.648 | 0.58 | 0.873 | 1.11 | 0.946 | 0.848 | 0.557 | 0.739 | 0.745 |
| N#Cc1ccc2[nH]c(O)c(-c3ccc(CN4CCOCC4)cn3)c2c1 | 1.38 | 1.56 | 0.758 | 1.28 | 1.3 | 0.862 | 1.43 | 1.27 | 0.688 | 1.15 | 1.01 | 0.991 | 1.1 | 1.1 | 1 | 1.08 | 0.974 | 0.97 |
| Cc1cc(Nc2cc(N3CCN(C)CC3)nc(Sc3ccc(NC(=O)C4CC4)cc3)n2)n[nH]1 [VX-680 (Tozasertib, MK-0457)] | 0.609 | 1.36 | 0.78 | 1.09 | 0.919 | 0.587 | 0.98 | 1.04 | 0.374 | 0.913 | 0.954 | 0.963 | 0.951 | 0.902 | 0.974 | 0.88 | 0.95 | 0.891 |
| CS(=O)(=O)N1CCN(Cc2cc3nc(-c4cccc5[nH]ncc45)nc(N4CCOCC4)c3s2)CC1 | 0.999 | 1.27 | 0.277 | 0.784 | 0.774 | 0.301 | 0.739 | 0.923 | 0.434 | 0.889 | 0.796 | 0.687 | 0.842 | 0.798 | 0.524 | 0.982 | 0.799 | 0.472 |
| Cc1cc(Nc2cc(CN3CCOCC3)c3nc(C)c(Cc4ccc(Cl)cc4F)n3n2)n[nH]1 | 1.2 | 0.989 | 0.621 | 1.25 | 0.793 | 0.461 | 0.94 | 0.876 | 0.511 | 1.15 | 1.06 | 0.733 | 0.778 | 0.945 | 0.775 | 0.5 | 1.04 | 0.705 |
| COc1cc(-c2cc(-c3ccc(N4CCNCC4)cc3)cnc2C)cc(OC)c1OC | 2.15 | 3.01 | 2.17 | 1.24 | 1.36 | 1.36 | 1.42 | 1.59 | 1.37 | 0.849 | 0.794 | 0.736 | 0.912 | 0.8 | 0.719 | 1.22 | 1.13 | 0.831 |
| CCc1c2c(nc3ccc(OC(=O)N4CCC(N5CCCCC5)CC4)cc13)-c1cc3c(c(=O)n1C2)COC(=O)[C@]3(O)CC [Irinotecan] | 1.09 | 1.11 | 0.86 | 1.27 | 1.18 | 0.81 | 1.11 | 1.05 | 0.672 | 1.03 | 0.996 | 0.932 | 1.08 | 1.03 | 0.89 | 1.04 | 0.993 | 1.01 |
| CNC(=O)c1ccccc1Nc1nc(Nc2ccc(N3CCOCC3)cc2OC)ncc1Cl | 1.27 | 0.836 | 0.233 | 1.13 | 0.889 | 0.274 | 1.32 | 0.785 | 0.199 | 0.993 | 0.871 | 0.563 | 0.951 | 0.885 | 0.537 | 0.938 | 0.908 | 0.536 |
| CC(C)c1nc(CN(C)C(=O)N[C@H](C(=O)N[C@@H](Cc2ccccc2)C[C@H](O)[C@H](Cc2ccccc2)NC(=O)OCc2cncs2)C(C)C)cs1 [Ritonavir] | 1.42 | 1.05 | 1.15 | 1.58 | 1.21 | 1.24 | 1.32 | 1.09 | 1.07 | 1.01 | 0.977 | 0.972 | 0.988 | 0.957 | 1.01 | 1.05 | 0.975 | 0.992 |
| CS(=O)(=O)CCNCc1ccc(-c2ccc3ncnc(Nc4ccc(OCc5cccc(F)c5)c(Cl)c4)c3c2)o1 [Lapatinib Ditosylate (Tykerb)] | 1.07 | 1.08 | 1.11 | 1.12 | 1.15 | 1.27 | 0.951 | 1.15 | 1.01 | 0.958 | 0.949 | 0.654 | 0.984 | 0.895 | 0.757 | 0.919 | 0.967 | 0.744 |
| CC(=O)Oc1cc2c(s1)CCN(C(C(=O)C1CC1)c1ccccc1F)C2 (stereo not drawn) [Prasugrel (Effient)] | 1.1 | 1.16 | 1.15 | 0.99 | 1.16 | 0.994 | 0.953 | 1.15 | 1.03 | 1.04 | 1.04 | 0.95 | 1.01 | 1 | 0.992 | 1.15 | 1.02 | 1.07 |
| CS(=O)(=O)c1ccc(-c2cnc(N)c(C(=O)Nc3ccccc3)n2)cc1 | 2.13 | 2.86 | 1.61 | 1.27 | 1.23 | 0.714 | 1.36 | 1.28 | 0.899 | 0.756 | 0.693 | 0.593 | 0.877 | 0.731 | 0.715 | 1.11 | 1.05 | 1.06 |
| Cc1ccc(C(=O)Nc2ccc(CN3CCN(C)CC3)c(C(F)(F)F)c2)cc1C#Cc1cnc2[nH]ncc2c1 | 0.545 | 0.468 | -0.193 | 0.528 | 0.455 | -0.174 | 0.561 | 0.441 | -0.21 | 1.11 | 0.753 | 0.71 | 1.04 | 1.03 | 0.711 | 0.9 | 0.701 | 0.675 |
| O=C(c1ccc(Nc2nccc(-c3cc4ccccc4s3)n2)cc1)N1CCC(N2CCCC2)CC1 [IKK-16 (IKK Inhibitor VII)] | 1.02 | 0.996 | -0.199 | 0.826 | 1.2 | -0.159 | 1.01 | 0.992 | -0.21 | 1.03 | 0.949 | 0.847 | 1.05 | 1 | 0.802 | 1.02 | 0.99 | 0.748 |
| CCCNC(=O)Nc1ccc(Oc2ncnc3cc(OC)c(OC)cc23)cc1Cl | 1.42 | 1.45 | 1.49 | 1.91 | 1.35 | 1.23 | 1.32 | 1.36 | 1.2 | 1.16 | 1.05 | 0.927 | 1.16 | 1.02 | 1.1 | 0.577 | 1.05 | 1.02 |
| O=C(Nc1cccnc1)c1cc(-c2ccnc(F)c2)ccc1OCc1ccccc1 | 2.16 | 3.04 | 1.85 | 1.25 | 1.2 | 1.05 | 1.4 | 1.47 | 1.21 | 0.849 | 0.755 | 0.653 | 0.958 | 0.723 | 0.626 | 1.14 | 1.07 | 1.05 |
| CC(C)C[C@H](NC(=O)[C@H](Cc1ccccc1)C[C@@H](O)[C@H](Cc1ccccc1)NC(=O)OC(C)(C)C)C(=O)N[C@@H](Cc1ccccc1)C(N)=O | 2.17 | 3.04 | 1.91 | 1.2 | 1.29 | 1.33 | 1.22 | 1.42 | 1.42 | 0.827 | 0.813 | 0.688 | 0.872 | 0.828 | 0.683 | 1.18 | 1.07 | 1.09 |
| Cn1cc(-c2ccc3ncc(Cc4ccc5ncccc5c4)n3n2)cn1 | 1.2 | 1.19 | 0.99 | 0.872 | 1.1 | 0.959 | 1.11 | 1.03 | 0.835 | 1.03 | 1 | 0.847 | 1.06 | 1.04 | 0.833 | 1.04 | 1.06 | 0.74 |
| CN(C)Cc1cccc(N=C(c2ccccc2)c2c(O)[nH]c3cc(C(=O)N(C)C)ccc23)c1 | 1.49 | 0.509 | 1.56 | 2.01 | 1.2 | 1.1 | 0.549 | 1.42 | 1.41 | 1.11 | 1.12 | 0.863 | 0.712 | 1.06 | 0.501 | 0.573 | 0.832 | 0.849 |

Taken from above.
COc1cc2nccc(Oc3ccc(NC(=O)C4(C(=O)Nc5ccc(F)cc5)CC4)cc3)c2cc1OC – cell viability ([4]; 0.05 µM): 1.03
CCC[C@H](NC(=O)/C(C#N)=C/c1cccc(Br)n1)c1ccccc1 [Degrasyn (WP1130)] – cell viability ([4]; 0.05 µM): 0.997
